One assay addresses FLAG-tagged CUL1 (human) (UniProt Q13616). Kind of assay: co-IP; HEK293 cells transfected with FLAG-tagged bait for 48 h; lysate (50 mM Tris pH 7.5, 0.15 M NaCl, 1% NP-40, 0.1% SDS, 0.5% sodium deoxycholate) incubated with FLAG beads 3 h at 4 °C; endogenous prey detected by immunoblot; the text calls it a pull-down assay.
Assay [1] has as its target FLAG-tagged β-TrCP1 (human) (UniProt Q9Y297). The assay is described as above.
Assay [2] has as its target WT β-TrCP2 (construct of Fig. S3 and Fig. S7B) (human) (UniProt Q9UKB1). Kind of assay: co-IP; supplementary Figs. S3A, S3B, S7A, S7B, legends not shown; the methods describe only IP of exogenous FLAG- or HA-tagged proteins from cell lysates with FLAG or HA beads.

Chains of the proteins cited; added tags and fusions are not shown. Lines headed by an entry give the natural chain unless they say otherwise; changes in a name come on top.
UniProt Q13616: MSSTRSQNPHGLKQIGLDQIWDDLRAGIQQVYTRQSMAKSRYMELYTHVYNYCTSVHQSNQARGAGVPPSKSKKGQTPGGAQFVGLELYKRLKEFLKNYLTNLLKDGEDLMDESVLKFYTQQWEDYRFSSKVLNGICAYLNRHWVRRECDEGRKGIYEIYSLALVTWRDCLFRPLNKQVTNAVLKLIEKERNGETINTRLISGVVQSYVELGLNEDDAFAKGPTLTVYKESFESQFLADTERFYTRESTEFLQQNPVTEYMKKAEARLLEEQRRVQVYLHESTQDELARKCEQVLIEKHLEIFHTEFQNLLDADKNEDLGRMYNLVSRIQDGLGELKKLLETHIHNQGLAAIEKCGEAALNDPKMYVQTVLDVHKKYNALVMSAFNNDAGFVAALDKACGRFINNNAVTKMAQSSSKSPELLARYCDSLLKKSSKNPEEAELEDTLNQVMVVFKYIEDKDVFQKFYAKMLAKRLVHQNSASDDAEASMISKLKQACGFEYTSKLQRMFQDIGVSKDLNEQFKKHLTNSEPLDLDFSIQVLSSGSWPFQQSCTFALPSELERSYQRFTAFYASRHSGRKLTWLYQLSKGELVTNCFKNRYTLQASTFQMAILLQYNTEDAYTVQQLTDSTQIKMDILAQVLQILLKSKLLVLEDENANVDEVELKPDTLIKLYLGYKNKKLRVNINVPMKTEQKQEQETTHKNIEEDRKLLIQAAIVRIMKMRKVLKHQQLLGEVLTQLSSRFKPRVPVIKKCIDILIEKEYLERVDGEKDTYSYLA
UniProt Q9Y297: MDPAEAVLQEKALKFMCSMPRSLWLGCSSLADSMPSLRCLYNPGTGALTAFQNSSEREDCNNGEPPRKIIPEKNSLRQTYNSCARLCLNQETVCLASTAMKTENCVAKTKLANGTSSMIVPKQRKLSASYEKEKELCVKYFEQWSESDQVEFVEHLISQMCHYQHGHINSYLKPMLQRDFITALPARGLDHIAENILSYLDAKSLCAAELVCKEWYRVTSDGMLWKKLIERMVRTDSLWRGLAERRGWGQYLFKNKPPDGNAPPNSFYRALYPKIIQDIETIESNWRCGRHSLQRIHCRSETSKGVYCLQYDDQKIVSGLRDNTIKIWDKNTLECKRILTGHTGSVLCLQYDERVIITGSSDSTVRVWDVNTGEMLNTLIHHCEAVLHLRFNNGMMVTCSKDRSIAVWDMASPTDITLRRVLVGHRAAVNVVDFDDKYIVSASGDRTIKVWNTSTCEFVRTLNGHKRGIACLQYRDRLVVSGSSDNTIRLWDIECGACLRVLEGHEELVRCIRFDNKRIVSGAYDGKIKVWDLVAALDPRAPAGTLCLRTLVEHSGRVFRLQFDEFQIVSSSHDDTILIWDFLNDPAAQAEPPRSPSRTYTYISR
UniProt Q9UKB1: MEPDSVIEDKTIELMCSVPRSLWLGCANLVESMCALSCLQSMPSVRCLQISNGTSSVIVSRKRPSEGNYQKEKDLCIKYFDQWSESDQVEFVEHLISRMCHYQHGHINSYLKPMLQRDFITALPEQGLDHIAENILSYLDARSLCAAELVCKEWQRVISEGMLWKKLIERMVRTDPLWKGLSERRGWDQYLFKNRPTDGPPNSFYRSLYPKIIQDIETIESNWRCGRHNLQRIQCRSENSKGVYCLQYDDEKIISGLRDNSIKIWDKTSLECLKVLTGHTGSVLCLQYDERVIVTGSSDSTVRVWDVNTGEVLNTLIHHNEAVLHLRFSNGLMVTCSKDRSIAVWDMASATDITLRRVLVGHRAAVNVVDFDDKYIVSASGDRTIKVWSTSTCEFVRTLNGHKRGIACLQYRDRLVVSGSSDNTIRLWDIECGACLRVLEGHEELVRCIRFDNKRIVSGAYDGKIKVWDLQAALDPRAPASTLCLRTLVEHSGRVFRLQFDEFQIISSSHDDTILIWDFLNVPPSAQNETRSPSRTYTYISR

These are yes or no findings as the source states them, for the method shown. In cells and extracts the contact can be indirect. Some entries that bind do so weakly or less than the wild type.

In the case of “endogenous β-TrCP2 (from UniProt Q9UKB1 1-542)”, the binding entry (with FLAG-tagged CUL1 (human); in assay [1]) was “binds” throughout.
On to “WT β-TrCP2 (construct of Fig. S3 and Fig. S7B) (from UniProt Q9UKB1 1-542)”, for which the binding entry in assay [2] is on record as “binds”.
For “endogenous β-TrCP1 (from UniProt Q9Y297 1-605)”, the binding entry with FLAG-tagged CUL1 (human) is “binds”.
Regarding “WT β-TrCP1 (construct of Fig. S3 and Fig. S7A) (from UniProt Q9Y297 1-605)”, the binding result in assay [2] is recorded as “binds”.

For the origin of these results see article PMC7206145.
